The values below come from publication PMC7819943, “Rice protein-binding microarrays: a tool to detect cis-acting elements near promoter regions in rice”.

Chains of the proteins cited; added tags and fusions are not shown.
UniProt Q0JBA9, entry or part of it: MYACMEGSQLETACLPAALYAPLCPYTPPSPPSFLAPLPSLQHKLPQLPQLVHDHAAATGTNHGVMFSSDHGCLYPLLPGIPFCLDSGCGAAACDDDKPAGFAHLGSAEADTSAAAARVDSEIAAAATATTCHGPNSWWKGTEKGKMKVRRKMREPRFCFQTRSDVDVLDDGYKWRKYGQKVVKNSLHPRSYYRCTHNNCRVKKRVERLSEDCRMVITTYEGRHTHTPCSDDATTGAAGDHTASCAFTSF

The other results are listed elsewhere or left out.

The experiment deals with OsWRKY34 (Oryza sativa, UniProt Q0JBA9 1-250). Put plainly: protein-binding microarray (RPBM); PBS, 2% BSA, 51.3 ng/ul salmon testes DNA, 50 uM zinc acetate, 200 nM TF, 25 C, 1 h; high values mean tight binding. The note with it: protein: recombinant; tags: N-terminal polyhistidine and DsRed monomer fusion (pET32a); label: CyDye5-dUTP incorporated in the synthesized complementary strand; 3' TTTTT single-stranded linker to array surface; dsDNA, one strand shown. A digest of the protocol: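 A custom Agilent array was converted to double-stranded form by primer extension with Cy5-dUTP and blocked with 2% BSA. Protein at 200 nM in PBS with 2% BSA, salmon testes DNA and 50 µM zinc acetate was applied for 1 h at 25 °C, followed by washing. The proteins were polyhistidine–DsRed N-terminal fusions of transcription factors, expressed in E. coli BL21-CodonPlus and Ni–NTA-purified. The binding signal is per-feature fluorescence intensity (arbitrary units) from an Axon 4000B scanner.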
Consider “ACTGTCATGCAAATGCTTTGGTTTGTTCTCTGTACATTCCCGGAGTCACCTAGTGCAG”, for which the binding signal was 8560 fluorescence intensity (a.u.). The value for “ATCAATGTTTTTGTTCTTGGATTTGCAATGCTTACGAAATCGGAGTCACCTAGTGCAG” was 9290 fluorescence intensity (a.u.); that for “TTTTGCATGTTCTATTGCATCCTTGAAAGCTATGTGCTTTCGGAGTCACCTAGTGCAG” was 8450 fluorescence intensity (a.u.). For “CGCGCTGAAAGATTCGCTTTCTTGGTTGGTTGGTTGATCGCGGAGTCACCTAGTGCAG”, the binding signal was 11000 fluorescence intensity (a.u.). For the sequence “TTCTACTGGCGTTCCCTCACACATTTATTCCAATTCATTCCGGAGTCACCTAGTGCAG”, the binding signal is 8320 fluorescence intensity (a.u.). Regarding “ACGCATCATTATGGCCACTGCTGTTCCCATCCATCTCCAGCGGAGTCACCTAGTGCAG”, the binding signal was 8670 fluorescence intensity (a.u.). The figure for “GCGTCTCCTCAACCAATCGCCATTTGCCGCGCCTTATCCACGGAGTCACCTAGTGCAG” is 9290 fluorescence intensity (a.u.); for “CCCCGTTTTTTTTCTGGGTGTAGCGGTGGAGTTGCTTGGGCGGAGTCACCTAGTGCAG” it is 8040 fluorescence intensity (a.u.); for “TCTGGCTCCATGCTGTCACCTGCCATTGCAAGTTTGCAACCGGAGTCACCTAGTGCAG” it is 8650 fluorescence intensity (a.u.). The figure for “AATTATATTCACGGTCTATTGTTTGTCCTAGCTAAAATATCGGAGTCACCTAGTGCAG” is 8080 fluorescence intensity (a.u.); for “GTACAACGCAGGCGCTCACAAGTCACGTCCACTCATCCCTCGGAGTCACCTAGTGCAG” it is 9980 fluorescence intensity (a.u.); for “ATTTAATGGGTTGATTCGTTCTTAGATGGCTAGCAATAATCGGAGTCACCTAGTGCAG” it is 9790 fluorescence intensity (a.u.). The figure for “CTCTATCAGGGATGGTCAGCTGGAGTTCGTGTGCATCAGTCGGAGTCACCTAGTGCAG” is 8310 fluorescence intensity (a.u.); for “AGCACTGTAGCTGACCCACTACTGCCCCAGTCAAGCCGCGCGGAGTCACCTAGTGCAG” it is 8750 fluorescence intensity (a.u.). With “GGTCTGAACTCTCGAGTCTAATATTGTATTTCTTGTATTTCGGAGTCACCTAGTGCAG”, the binding signal was 15000 fluorescence intensity (a.u.). Consider “AAATTTCTACTGTCATGCTTCCTTGTCCCATTACTACATCCGGAGTCACCTAGTGCAG”, for which the binding signal was 9500 fluorescence intensity (a.u.). The figure for “GGGCTGGCCTTCTTTGACACAAGCATCTTAAATCTGTATCCGGAGTCACCTAGTGCAG” is 8070 fluorescence intensity (a.u.). The value for “GAGGTGGTGGAGCGAGGTGGAAGAGGGCGCGGGTGGCGGGCGGAGTCACCTAGTGCAG” was 9480 fluorescence intensity (a.u.); that for “TCGCCTATCTCTCTATCTCTTTCGCCACCGCTTGCCTCTCCGGAGTCACCTAGTGCAG” was 9030 fluorescence intensity (a.u.); that for “CGCATTCTCGTCGTGTCTGGTTTGAGCTGCTGCTGCTGCTCGGAGTCACCTAGTGCAG” was 9710 fluorescence intensity (a.u.). As for “TACCGATGGGGCTCTTATACTCCAACTCTTGCCCTGTTTACGGAGTCACCTAGTGCAG”, the binding signal is 9020 fluorescence intensity (a.u.). The figure for “AGTCACGGGTACATAGGGTGTGGTTAGATCTTTTTTTTTCCGGAGTCACCTAGTGCAG” is 12100 fluorescence intensity (a.u.). The value for “TGGTTTCATCTATTTTCTTTGTTTTTTTATGTCTATTGAACGGAGTCACCTAGTGCAG” was 12100 fluorescence intensity (a.u.). With “GGGGTGTTTTTTTTTTGCAATTTTTTTCTTTAAAATTGTACGGAGTCACCTAGTGCAG”, the binding signal is 13700 fluorescence intensity (a.u.). The value for “CGCTGCTCTCACTGTCGTCACCCGCGTGGCCACGTCGATGCGGAGTCACCTAGTGCAG” was 9100 fluorescence intensity (a.u.); that for “GGTCTCGGTCGGTCTACTATCTCCATGCGCTCACGTTCCACGGAGTCACCTAGTGCAG” was 13000 fluorescence intensity (a.u.).

“TAATGTATAACGCCGTTAACTTTTTAACAAACGTTTGACCCGGAGTCACCTAGTGCAG”: the binding signal was 8430 fluorescence intensity (a.u.). The figure for “CCATCTGCGGCGTACTTGCCACTTTTCTTCGATCGGCACCCGGAGTCACCTAGTGCAG” is 8510 fluorescence intensity (a.u.); for “TAAGTTTGACTTTTGGGGAATTTAATCTAATCCAGCGTGGCGGAGTCACCTAGTGCAG” it is 11300 fluorescence intensity (a.u.).

As to “ATCCTGGCCAAAATGCTTCTCTCACACCGGTTTGTACACGCGGAGTCACCTAGTGCAG”, the binding signal was 8290 fluorescence intensity (a.u.). Consider “TCTTTGTCTCCAACTCCCTCGTCTCCTTGTACGCCAAGTTCGGAGTCACCTAGTGCAG”, for which the binding signal was 8220 fluorescence intensity (a.u.). The figure for “ACCGAAACTGCTTGCATCACCGCTGATATCATCGCCTCCACGGAGTCACCTAGTGCAG” is 11000 fluorescence intensity (a.u.). The value for “ACTCCCTACGTCTGTCCAGACGTTTTTCTTAGTCAATTTTCGGAGTCACCTAGTGCAG” was 8360 fluorescence intensity (a.u.). For the sequence “TCCACTAATCCACGAAACTCTCAGCTCATCCACACACATCCGGAGTCACCTAGTGCAG”, the binding signal was 10500 fluorescence intensity (a.u.). “GCCGTCCACTCCTCAACCGCGTCTCCGCTGTTTCCTTAGCCGGAGTCACCTAGTGCAG”: the binding signal was 11600 fluorescence intensity (a.u.).

Consider “GGCACTTGATGTGGTTGGCCATTGTCTTGATTATAACCTCCGGAGTCACCTAGTGCAG”, for which the binding signal was 8650 fluorescence intensity (a.u.). The value for “CATGGCCTAGTTGGGGTGTTGCGTATGTAATTTATCTGTCCGGAGTCACCTAGTGCAG” was 8100 fluorescence intensity (a.u.); that for “GCCCACTTCCCAACTGCTACGTCTGCTTGCGTCGAGAGTCCGGAGTCACCTAGTGCAG” was 10700 fluorescence intensity (a.u.); that for “ACTTTAAACACAACTTTTCTTTTTTTATATTTGCATAAATCGGAGTCACCTAGTGCAG” was 9210 fluorescence intensity (a.u.). For “CGACCTGCATATCACTGTACATAAGCTCAAGTTTTAAATCCGGAGTCACCTAGTGCAG”, the binding signal was 8760 fluorescence intensity (a.u.). In the case of “CAACAAACTATTCTTTGCTGTGTCCATTTGTTTCCATTCCCGGAGTCACCTAGTGCAG”, the binding signal was 10400 fluorescence intensity (a.u.). The value for “ATTTTTATACGGACTCTAAACTCTACTTTTAATTTTATTACGGAGTCACCTAGTGCAG” was 8490 fluorescence intensity (a.u.).
